Reference: PubChem BioAssay AID652243 (Drosophila RNAi Screening Center, 2013)

Purpose: 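Fly genes required for human androgen receptor driven transcription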 (primary screen)
System: Drosophila S2R+ cells
Knock-down reagent: long dsRNA against Drosophila genes
Timing: 72 h (48 h, then 24 h hormone)
Challenge: synthetic androgen R1881 at 10 nM for 24 h
Measurement: 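Firefly light from an androgen-responsive reporter and Renilla control light per well, raw and unnormalised, for each of two replicates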
Reading the numbers: firefly reporter light: higher = more light from androgen-responsive reporter; Renilla control light: higher = more constitutive control signal (cell number, transfection)
Call rule: 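Hit when the log firefly-to-Renilla ratio dropped or increased by a fixed fold versus the mean of GFP or LacZ controls across duplicate plates; lowering cut given as 1.5 and as 3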
Calls: active = hit: reporter lowered or raised; inactive = no hit
In all, the deposit lists about 24,000 reagents; shown is an unselected part of those with a known target gene and a result. Of all reagents, 246 (1%) were called active. 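Plates not normalised; calls are printed but the firefly/Renilla ratio behind them is not deposited; fold cut for lowering reported inconsistently.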 The raw values are shown without normalisation. Reagents against one gene are numbered here. Names joined by + are all predicted targets of the reagent. No sequences are given here. Not given: the amount of reagent.

gene	reagent no.	firefly reporter light, replicate 1	firefly reporter light, replicate 2	Renilla control light, replicate 1	Renilla control light, replicate 2	outcome
RpL14	1	1.60e5	1.23e5	1.33e6	9.10e5	inactive
Wnt10	1	1.77e5	1.61e5	1.65e6	1.43e6	inactive
Wnt10	2	4.35e5	3.86e5	1.19e6	1.21e6	inactive
CR32011 + CR32010 + PlexB + 1 more	1	7.03e5	7.58e5	2.41e6	1.57e6	inactive
CR32011 + CR32010 + PlexB + 1 more	2	3.10e5	3.72e5	6.57e5	5.37e5	inactive
CG14835	1	1.10e5	1.04e5	1.23e6	1.64e6	inactive
CG3829	1	9.62e5	6.40e5	2.23e6	1.82e6	inactive
Uck	1	1.77e5	2.29e5	2.31e6	2.26e6	inactive
Uck	2					inactive
jhamt	1	1.17e5	1.38e5	1.84e6	1.45e6	inactive
CG14113	1	5.69e5	4.60e5	3.03e6	2.69e6	inactive
ITP	1	2.63e5	3.72e5	1.65e6	1.78e6	inactive
unc	1	1.84e5	1.62e5	8.36e5	4.59e5	inactive
unc	2	3.98e5	3.11e5	1.54e6	9.15e5	inactive
CG11162	1	3.07e5	5.24e5	4.35e6	4.02e6	inactive
CG11162	2	1.07e6	8.74e5	1.17e6	1.16e6	inactive
CG2772	1	1.52e5	1.09e5	8.81e5	6.20e5	inactive
CG2772	2	6.09e5	2.93e5	8.82e5	3.21e5	inactive

4 entries from above, set out differently.
gene,reagent no.,"firefly reporter light, replicate 1","firefly reporter light, replicate 2","Renilla control light, replicate 1","Renilla control light, replicate 2",outcome
ITP,1,2.63e5,3.72e5,1.65e6,1.78e6,inactive
unc,1,1.84e5,1.62e5,8.36e5,4.59e5,inactive
unc,2,3.98e5,3.11e5,1.54e6,9.15e5,inactive
CG11162,1,3.07e5,5.24e5,4.35e6,4.02e6,inactive

Additional records follow.
gene	reagent no.	firefly reporter light, replicate 1	firefly reporter light, replicate 2	Renilla control light, replicate 1	Renilla control light, replicate 2	outcome
Sf3b1	1	63857	85991	6.44e5	6.63e5	inactive
Sf3b1	2	2.01e5	4.20e5	7.74e5	1.28e6	inactive
CG13616	1	1.92e5	2.40e5	1.85e6	2.68e6	inactive
CG5377	1	2.73e5	3.65e5	3.41e6	3.74e6	inactive
CG5377	2	4.17e5	4.36e5	9.80e5	1.35e6	inactive
CG31262	1	1.38e5	53301	1.55e5	1.42e5	inactive
Nacalpha	1	5.17e5	4.93e5	1.37e6	1.70e6	inactive
Nacalpha	2	4.39e5	3.87e5	6.88e5	6.13e5	inactive
CG40378 (retired record)	1	6.85e5	5.42e5	2.31e6	2.10e6	inactive
CG7968	1	2.61e5	2.54e5	1.86e6	1.91e6	inactive
Alg7	1	5.57e5	6.13e5	1.92e6	2.02e6	inactive
Alg7	2	1.65e5	1.53e5	1.20e6	1.24e6	inactive
RpL5	1	2.29e5	2.02e5	1.34e6	1.22e6	inactive
RpL5	2	5.31e5	4.05e5	2.41e5	2.83e5	inactive
Hex-t1	1	1.22e5	1.52e5	2.45e6	2.34e6	inactive
Hex-t1	2	2.85e5	2.74e5	7.55e5	7.86e5	inactive
CG13748	1	2.01e5	1.35e5	1.24e6	6.08e5	inactive
CG17127	1	2.04e5	2.35e5	1.63e6	1.77e6	inactive
CG17127	2	3.36e5	3.28e5	1.68e6	1.69e6	inactive
unc79	1	95375	1.39e5	8.05e5	9.72e5	inactive
unc79	2	5.62e5	7.81e5	7.98e5	1.07e6	inactive
Mf	1	2.34e5	1.56e5	3.45e6	2.43e6	inactive
